No constants are given. Whether binding was seen depends on the method and setting. Some results given as binding are weak or reduced against the parent protein; the word gives no strength.
T1: Activin B (UniProt P09529)
T1 sequence (looked up): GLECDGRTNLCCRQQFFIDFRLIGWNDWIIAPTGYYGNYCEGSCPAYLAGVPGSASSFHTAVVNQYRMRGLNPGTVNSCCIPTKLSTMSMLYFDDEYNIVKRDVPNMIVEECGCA

Amino acid sequences for entries named in this document (tags omitted). Residues count along the entry.
UniProt P13385, residues 31-169: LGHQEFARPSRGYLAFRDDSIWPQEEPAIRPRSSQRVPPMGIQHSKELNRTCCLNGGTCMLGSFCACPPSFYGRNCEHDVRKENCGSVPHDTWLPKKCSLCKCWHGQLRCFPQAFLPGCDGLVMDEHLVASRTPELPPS


Columns and labels:
Activin B = biological target: T1, Activin B; assay: ELISA, ligand-coated plate, anti-Fc alkaline phosphatase
CR-Fc = CR-Fc (UniProt P13385); assay: Biacore, CR-Fc immobilized

Molecule	binding (Activin B)	binding (CR-Fc)
CR-Fc (from UniProt P13385 31-169) (Fc fusion)	binds	
Activin B (ligand, UniProt P09529 293-407, looked up) GLECDGRTNLCCRQQFFIDFRLIGWNDWIIAPTGYYGNYCEGSCPAYLAGVPGSASSFHTAVVNQYRMRGLNPGTVNSCCIPTKLSTMSMLYFDDEYNIVKRDVPNMIVEECGCA		binds

Reference: EP1494693B1
